Article doi:10.1101/614636
No constants are given. Whether binding was seen depends on the method and setting. Binding can be weak; no strength is given.

Amino acid sequences for entries named in this document (tags omitted). A change or cut given only in a name is not applied to a line headed by its entry.
UniProt Q17TI5: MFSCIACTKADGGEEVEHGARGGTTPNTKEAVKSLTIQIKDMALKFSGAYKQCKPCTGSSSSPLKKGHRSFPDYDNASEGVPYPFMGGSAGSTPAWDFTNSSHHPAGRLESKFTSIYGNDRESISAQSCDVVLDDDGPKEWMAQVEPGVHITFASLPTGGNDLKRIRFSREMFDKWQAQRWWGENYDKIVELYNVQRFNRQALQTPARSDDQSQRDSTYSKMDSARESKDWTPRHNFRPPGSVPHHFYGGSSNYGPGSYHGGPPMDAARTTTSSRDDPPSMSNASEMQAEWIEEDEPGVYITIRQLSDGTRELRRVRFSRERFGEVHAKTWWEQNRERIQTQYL

Biological target: T1, BREAKING OF … IN THE STOMATAL LINEAGE (BASL), full length, yeast two-hybrid bait (Arabidopsis thaliana) (UniProt Q5BPF3)
T1 sequence: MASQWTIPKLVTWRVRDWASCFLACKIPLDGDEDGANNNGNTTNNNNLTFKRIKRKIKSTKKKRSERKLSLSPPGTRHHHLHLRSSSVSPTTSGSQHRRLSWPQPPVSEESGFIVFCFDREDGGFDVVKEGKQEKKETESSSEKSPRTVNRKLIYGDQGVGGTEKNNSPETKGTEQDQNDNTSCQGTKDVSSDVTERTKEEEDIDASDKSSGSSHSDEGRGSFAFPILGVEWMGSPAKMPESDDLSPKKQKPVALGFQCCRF
Assay: two-hybrid

binding: binds
Substance: BRX C domain, pairwise yeast two-hybrid construct (from UniProt Q17TI5) (domain or fragment)
